Our source for the binding values is patent US20240218055A1 (US Dept. of Health and Human Services, published 2024).

Chains of the proteins cited; added tags and fusions are not shown. Lines headed by an entry give the natural chain unless they say otherwise; changes in a name come on top.
UniProt P08669: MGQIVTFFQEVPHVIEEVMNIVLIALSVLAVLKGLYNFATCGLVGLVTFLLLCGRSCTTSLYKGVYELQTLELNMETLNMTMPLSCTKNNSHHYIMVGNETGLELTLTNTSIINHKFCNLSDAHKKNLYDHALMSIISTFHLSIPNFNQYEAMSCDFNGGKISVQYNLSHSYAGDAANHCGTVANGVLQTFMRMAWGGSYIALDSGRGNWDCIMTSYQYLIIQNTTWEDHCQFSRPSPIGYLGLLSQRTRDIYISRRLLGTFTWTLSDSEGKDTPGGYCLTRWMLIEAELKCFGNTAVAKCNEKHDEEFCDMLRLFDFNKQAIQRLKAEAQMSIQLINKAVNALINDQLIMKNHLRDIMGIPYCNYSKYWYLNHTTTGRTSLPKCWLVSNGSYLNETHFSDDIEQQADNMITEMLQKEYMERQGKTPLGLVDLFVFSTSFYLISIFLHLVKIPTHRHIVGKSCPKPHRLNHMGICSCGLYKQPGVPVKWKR

B1: shark VNAR B8 (VNAR)
VNAR: ARVDQTPQTVTKETGESLTINCVLRDSNCALPSTYWYRKKSGSTNEENISKGGRYVETVNSGSKSFSLRINDLRPEDSGTYRCKVHGLPLDCIPARGLELNWREDVNGGGTAVTVN
B2: shark VNAR A1 (VNAR)
VNAR: ARVDQTPQTITKETGESLTINCVPPDSNCALADTYWYRKKSGSTNEESISKGGRYVPTVNSGSKSFILRINDLRVADSGTYRCKVSCYAAAYYGQQLERLYDVYGGGTAVTVN
B3: shark VNAR B10 (VNAR)
VNAR: ARVDQTPQTITKETGESLTINCVLRDSNCPLSSTFWYRADAGSLNEENISKGGRYVETVNSGSKSFSLRINDLTTEDSGTYRCKVAGLPLDCIPARGLELNWREDVYGGGTAVTVN
B4: shark VNAR A10 (VNAR)
chain: ARVDQTPQTITKETGESLTITCILRDSQCALSPTYWYHKKSGSTKPERIYKGGRYVETVNSGSKSFSLRINDLTVEDSGTFFCKVSGWYAYSCRLEPDGYYDVYGGGTVVTVN

These are yes or no findings as the source states them, for the method shown. Some results given as binding are weak or reduced against the parent protein; the word gives no strength.

For this assay, the target named is LASV GP1 subunit protein (Lassa virus) (UniProt P08669). The experiment in a line: BLI, GP1 subunit protein. (In general: In BLI a coated tip is dipped into the sample, and binding shifts an interference pattern.)
On to B1, for which the binding result is recorded as “binds”.
Take B2: the binding result was “binds”.
To B3 belongs “binds”; to B4, “binds”.
